The list shows a part of the results.
How the values were obtained:
Experiment in all cases: log2 fold change, soluble protein after heating vs DMSO (PISA); higher = thermal stabilisation; K562 lysate, 10 uM; active = over 0.2 and 3.5 SD of the protein, either way, in both replicates (recomputed)
[1] = compound: C1=CC=C(C=C1)[C@H](COC2=CC3=C(C=C2)NC(=O)N3)NC(=O)C4=CC=CN(C4=O)CC5=CC(=C(C=C5)F)F
Procedure, shortened: (§1)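 Soluble protein was defined as the supernatant remaining after 21,000xg for 90 min, following pooling of heated aliquots and adjustment to 0.5% NP-40 at 4°C. Before that, crude K562 extract at 1 mg/mL protein in PBS pH 7.4 with 1 mM MgCl2 was treated with 10 μM compound for 30 min and heated for 3 min across 48°C-58°C. Quantification used TMTpro 16plex LC-MS/MS with channel sums equalised, and values are log-two fold changes in thermal stability relative to solvent controls from duplicates.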

Amino acid sequences for entries named in this document (tags omitted). A change or cut given only in a name is not applied to a line headed by its entry.
UniProt P62714, whole entry, looked up: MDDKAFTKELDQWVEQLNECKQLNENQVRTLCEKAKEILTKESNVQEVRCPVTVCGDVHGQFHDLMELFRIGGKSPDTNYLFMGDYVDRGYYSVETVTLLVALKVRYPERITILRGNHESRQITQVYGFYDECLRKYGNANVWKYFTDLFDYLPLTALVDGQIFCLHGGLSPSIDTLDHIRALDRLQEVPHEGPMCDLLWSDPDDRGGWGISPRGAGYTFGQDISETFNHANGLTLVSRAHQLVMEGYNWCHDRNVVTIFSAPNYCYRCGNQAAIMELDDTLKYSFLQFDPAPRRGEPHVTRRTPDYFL
UniProt P30405: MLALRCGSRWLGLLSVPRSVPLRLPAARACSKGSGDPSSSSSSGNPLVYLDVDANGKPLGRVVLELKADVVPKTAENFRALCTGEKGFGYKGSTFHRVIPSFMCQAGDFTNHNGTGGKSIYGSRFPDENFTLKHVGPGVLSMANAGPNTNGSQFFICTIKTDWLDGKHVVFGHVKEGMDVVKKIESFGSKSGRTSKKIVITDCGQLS
UniProt Q9UPN7: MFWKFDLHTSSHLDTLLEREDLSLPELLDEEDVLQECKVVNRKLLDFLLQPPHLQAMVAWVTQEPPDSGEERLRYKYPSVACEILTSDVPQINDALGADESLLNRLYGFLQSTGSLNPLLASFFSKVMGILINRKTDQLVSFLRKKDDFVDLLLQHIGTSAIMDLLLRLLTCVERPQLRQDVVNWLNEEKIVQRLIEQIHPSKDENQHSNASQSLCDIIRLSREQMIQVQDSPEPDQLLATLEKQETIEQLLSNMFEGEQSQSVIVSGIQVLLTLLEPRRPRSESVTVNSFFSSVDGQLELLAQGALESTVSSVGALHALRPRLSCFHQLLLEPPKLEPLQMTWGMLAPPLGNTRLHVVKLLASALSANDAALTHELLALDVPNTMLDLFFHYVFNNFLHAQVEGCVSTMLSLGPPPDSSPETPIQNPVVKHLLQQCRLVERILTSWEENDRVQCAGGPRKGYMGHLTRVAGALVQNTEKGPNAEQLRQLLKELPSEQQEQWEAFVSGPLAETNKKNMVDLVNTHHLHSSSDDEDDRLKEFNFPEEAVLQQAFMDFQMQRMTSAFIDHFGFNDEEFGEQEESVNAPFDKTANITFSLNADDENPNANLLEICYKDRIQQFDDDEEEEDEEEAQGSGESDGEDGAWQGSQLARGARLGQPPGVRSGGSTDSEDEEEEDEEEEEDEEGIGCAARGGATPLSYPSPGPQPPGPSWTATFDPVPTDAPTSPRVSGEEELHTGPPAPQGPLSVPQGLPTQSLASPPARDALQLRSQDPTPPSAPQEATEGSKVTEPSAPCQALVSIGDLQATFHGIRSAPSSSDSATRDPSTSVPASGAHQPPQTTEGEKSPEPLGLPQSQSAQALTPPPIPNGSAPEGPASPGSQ
UniProt O43314: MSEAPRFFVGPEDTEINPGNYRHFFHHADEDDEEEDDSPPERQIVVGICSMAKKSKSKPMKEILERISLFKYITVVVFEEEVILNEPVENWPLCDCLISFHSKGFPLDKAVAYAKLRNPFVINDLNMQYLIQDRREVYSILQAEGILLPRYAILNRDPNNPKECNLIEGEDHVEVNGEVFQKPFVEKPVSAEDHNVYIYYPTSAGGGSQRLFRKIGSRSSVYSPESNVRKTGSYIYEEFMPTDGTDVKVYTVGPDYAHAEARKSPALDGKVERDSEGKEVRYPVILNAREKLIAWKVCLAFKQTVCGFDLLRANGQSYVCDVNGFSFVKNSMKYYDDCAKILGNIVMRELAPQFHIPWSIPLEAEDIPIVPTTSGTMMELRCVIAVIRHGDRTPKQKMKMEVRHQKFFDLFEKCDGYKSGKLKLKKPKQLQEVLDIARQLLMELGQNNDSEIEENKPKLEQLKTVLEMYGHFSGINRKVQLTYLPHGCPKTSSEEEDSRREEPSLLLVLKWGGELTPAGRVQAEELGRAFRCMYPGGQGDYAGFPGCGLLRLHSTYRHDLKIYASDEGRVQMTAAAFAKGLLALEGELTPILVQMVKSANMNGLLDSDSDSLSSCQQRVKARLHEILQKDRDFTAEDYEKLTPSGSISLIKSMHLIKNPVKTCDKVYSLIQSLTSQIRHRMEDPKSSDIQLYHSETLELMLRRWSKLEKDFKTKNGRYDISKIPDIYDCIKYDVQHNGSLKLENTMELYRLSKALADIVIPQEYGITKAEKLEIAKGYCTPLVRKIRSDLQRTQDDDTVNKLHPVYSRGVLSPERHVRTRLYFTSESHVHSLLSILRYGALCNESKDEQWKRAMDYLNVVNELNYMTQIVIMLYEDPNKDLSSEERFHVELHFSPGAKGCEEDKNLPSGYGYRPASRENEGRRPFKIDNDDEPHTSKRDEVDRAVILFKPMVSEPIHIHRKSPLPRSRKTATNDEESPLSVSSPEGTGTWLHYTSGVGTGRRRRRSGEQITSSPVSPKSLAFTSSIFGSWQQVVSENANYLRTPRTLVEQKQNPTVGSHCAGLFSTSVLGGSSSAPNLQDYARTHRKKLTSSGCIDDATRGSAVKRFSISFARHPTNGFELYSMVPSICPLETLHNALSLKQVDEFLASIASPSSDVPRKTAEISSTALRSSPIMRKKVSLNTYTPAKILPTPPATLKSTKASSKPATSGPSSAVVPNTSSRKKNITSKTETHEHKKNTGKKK
UniProt P49642: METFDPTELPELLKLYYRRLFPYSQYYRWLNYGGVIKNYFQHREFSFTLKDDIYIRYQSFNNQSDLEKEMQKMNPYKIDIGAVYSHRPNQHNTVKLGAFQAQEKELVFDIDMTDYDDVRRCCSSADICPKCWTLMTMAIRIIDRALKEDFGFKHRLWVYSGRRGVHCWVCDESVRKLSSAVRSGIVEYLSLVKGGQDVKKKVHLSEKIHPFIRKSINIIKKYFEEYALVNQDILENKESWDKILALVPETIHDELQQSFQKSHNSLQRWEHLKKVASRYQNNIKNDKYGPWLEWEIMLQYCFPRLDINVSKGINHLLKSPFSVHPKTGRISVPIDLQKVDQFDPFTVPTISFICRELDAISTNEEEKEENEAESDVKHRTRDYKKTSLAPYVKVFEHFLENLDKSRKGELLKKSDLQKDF
UniProt O60678: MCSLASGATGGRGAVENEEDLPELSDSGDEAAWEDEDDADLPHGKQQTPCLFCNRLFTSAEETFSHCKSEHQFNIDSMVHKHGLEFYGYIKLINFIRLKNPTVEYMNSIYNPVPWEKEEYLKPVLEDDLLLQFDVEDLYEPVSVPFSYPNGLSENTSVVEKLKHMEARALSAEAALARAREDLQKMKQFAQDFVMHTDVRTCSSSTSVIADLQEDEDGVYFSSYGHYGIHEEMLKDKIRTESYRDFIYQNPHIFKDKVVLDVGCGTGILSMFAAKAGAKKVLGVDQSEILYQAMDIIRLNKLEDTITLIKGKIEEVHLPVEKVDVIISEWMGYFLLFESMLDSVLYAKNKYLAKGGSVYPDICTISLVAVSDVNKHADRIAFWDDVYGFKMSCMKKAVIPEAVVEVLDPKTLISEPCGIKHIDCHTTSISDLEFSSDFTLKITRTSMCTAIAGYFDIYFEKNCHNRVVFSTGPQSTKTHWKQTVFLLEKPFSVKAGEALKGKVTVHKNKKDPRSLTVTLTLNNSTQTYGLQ
UniProt Q6ZMI0: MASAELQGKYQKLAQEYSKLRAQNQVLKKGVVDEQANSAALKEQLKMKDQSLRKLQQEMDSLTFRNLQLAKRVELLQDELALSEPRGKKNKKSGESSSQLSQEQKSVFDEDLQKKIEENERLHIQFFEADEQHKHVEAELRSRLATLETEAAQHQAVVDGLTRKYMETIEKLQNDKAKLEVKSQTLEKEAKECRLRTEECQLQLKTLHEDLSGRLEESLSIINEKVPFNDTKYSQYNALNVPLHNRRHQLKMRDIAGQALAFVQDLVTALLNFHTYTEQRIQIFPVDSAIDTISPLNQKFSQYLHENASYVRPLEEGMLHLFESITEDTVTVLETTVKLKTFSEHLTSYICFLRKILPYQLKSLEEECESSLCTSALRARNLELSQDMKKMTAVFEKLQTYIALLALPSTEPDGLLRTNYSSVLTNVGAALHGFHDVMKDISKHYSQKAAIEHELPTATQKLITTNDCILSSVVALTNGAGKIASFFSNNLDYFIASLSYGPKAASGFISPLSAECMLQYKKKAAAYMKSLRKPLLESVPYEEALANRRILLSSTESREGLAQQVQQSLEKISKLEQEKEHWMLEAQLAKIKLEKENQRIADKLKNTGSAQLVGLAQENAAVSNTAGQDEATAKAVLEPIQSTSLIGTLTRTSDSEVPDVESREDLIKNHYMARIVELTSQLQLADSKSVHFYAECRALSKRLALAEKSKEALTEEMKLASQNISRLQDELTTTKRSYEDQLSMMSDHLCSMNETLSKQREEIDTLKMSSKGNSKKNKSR
UniProt P49643: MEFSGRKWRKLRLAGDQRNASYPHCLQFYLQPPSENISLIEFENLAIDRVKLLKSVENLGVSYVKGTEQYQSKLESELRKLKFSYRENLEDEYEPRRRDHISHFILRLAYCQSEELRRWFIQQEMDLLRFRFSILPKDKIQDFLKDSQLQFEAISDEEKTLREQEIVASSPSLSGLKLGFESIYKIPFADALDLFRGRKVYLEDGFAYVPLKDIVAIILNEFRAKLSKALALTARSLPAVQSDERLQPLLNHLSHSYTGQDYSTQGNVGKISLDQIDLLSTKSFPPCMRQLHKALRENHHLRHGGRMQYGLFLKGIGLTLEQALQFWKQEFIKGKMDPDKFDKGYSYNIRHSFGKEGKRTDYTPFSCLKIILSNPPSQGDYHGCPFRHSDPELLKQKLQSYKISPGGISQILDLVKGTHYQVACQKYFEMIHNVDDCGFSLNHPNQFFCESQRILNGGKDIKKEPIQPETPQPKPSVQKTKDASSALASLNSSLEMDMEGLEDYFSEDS
UniProt Q8TF05: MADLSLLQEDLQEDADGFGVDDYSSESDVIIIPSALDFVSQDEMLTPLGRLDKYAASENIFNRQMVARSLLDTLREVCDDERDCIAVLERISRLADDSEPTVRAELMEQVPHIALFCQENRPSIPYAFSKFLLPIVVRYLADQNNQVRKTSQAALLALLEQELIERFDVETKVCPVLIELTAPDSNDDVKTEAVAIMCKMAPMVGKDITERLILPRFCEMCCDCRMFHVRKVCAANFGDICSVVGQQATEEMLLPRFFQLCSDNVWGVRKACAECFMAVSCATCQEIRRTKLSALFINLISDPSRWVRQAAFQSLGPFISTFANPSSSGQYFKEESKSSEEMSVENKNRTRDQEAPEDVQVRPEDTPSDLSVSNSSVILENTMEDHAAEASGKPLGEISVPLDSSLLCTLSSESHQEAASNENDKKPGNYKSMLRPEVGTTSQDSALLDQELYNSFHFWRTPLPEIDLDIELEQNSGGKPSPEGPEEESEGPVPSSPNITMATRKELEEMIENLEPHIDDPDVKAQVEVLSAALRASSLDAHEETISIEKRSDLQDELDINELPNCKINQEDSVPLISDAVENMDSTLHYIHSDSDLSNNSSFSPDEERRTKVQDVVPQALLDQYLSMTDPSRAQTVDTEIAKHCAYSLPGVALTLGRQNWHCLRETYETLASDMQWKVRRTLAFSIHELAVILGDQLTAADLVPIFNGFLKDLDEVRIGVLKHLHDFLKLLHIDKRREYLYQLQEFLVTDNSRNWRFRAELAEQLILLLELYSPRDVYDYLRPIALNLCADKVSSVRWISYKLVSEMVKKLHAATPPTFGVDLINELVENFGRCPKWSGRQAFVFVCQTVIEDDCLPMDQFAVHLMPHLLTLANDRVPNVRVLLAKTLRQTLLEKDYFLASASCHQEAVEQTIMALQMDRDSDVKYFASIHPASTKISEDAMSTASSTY
UniProt Q9UMS4: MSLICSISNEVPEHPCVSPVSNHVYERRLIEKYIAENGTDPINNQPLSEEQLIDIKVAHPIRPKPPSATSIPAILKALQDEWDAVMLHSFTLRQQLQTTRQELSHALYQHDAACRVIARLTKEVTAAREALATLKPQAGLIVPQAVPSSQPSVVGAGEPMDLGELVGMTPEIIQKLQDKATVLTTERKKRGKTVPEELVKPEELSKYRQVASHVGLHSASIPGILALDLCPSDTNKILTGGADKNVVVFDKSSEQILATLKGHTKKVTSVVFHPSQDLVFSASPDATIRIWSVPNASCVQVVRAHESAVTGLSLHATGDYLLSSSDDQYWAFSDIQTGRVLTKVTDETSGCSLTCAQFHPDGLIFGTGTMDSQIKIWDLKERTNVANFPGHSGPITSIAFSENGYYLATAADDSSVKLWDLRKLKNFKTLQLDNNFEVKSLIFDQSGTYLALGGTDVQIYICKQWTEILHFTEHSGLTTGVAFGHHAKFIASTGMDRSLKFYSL
UniProt P63098, whole entry, looked up: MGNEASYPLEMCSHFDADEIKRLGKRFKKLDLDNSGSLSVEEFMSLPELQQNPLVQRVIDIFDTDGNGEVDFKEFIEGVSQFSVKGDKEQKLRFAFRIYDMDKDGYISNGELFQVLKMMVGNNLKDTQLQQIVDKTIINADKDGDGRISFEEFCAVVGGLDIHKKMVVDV

[2] = compound: CC1=C(SC2=C1C(=N[C@H](C3=NN=C(N32)C)CC(=O)N)C4=CC=C(C=C4)Cl)C
Procedure, shortened: as §1

[3] = compound: CC1=C2C(=CC=C1)N=C(N(C2=O)C3=CC=CC=C3C)CN4C=NC5=C(N=CN=C54)N
Procedure, shortened: as §1

[4] = compound: Cc1sc2c(c1C)C(c1ccc(Cl)cc1)=N[C@@H](CC(=O)OC(C)(C)C)c1nnc(C)n1-2
Procedure, shortened: as §1

[5] = compound: c1ccc([C@@H]2C[C@H]2NC2CCNCC2)cc1
Procedure, shortened: as §1

Measured: log2 fold change

PPP2CB (UniProt P62714)
inactive: [1] -0.002 | [2] -0.003 | [3] -0.014 | [4] 0 | [5] -0.04

PPIF (UniProt P30405)
inactive: [1] 0.008 | [2] 0.035 | [3] 0.001 | [4] -0.007 | [5] -0.11

PRMT7 (UniProt Q9NVM4)
inactive: [1] -0.002 | [2] -0.029 | [3] 0.009 | [4] -0.039 | [5] 0.014

PPP6R1 (UniProt Q9UPN7)
inactive: [1] -0.014 | [2] 0.018 | [3] 0.013 | [4] 0.004 | [5] -0.003

PRORP (UniProt O15091)
inactive: [1] -0.254 | [2] -0.202 | [3] 0 | [4] -0.035 | [5] 0.163

PPIP5K2 (UniProt O43314)
inactive: [1] 0.045 | [2] 0.023 | [3] 0.02 | [4] 0.028 | [5] 0.095

PRKD2 isoform 3 (UniProt Q9BZL6)
inactive: [1] 0.001 | [2] -0.031 | [3] 0.121 | [4] 0.02 | [5] 0.104

PRKACB isoform 2 (UniProt P22694)
inactive: [1] -0.042 | [2] -0.004 | [3] -0.018 | [4] -0.009 | [5] 0.019

Random excerpt: two records from the list
PPIP5K2 (UniProt O43314)
inactive: [1] 0.045 | [2] 0.023 | [3] 0.02 | [4] 0.028 | [5] 0.095

PRORP (UniProt O15091)
inactive: [1] -0.254 | [2] -0.202 | [3] 0 | [4] -0.035 | [5] 0.163

Going on with the list.

PRKCA (UniProt P17252)
inactive: [1] 0.01 | [2] -0.012 | [3] -0.061 | [4] 0.021 | [5] 0.089

PRIM1 (UniProt P49642)
inactive: [1] 0.009 | [2] -0.051 | [3] -0.018 | [4] -0.006 | [5] 0.047

PPP2CA (UniProt P67775)
inactive: [1] -0.108 | [2] 0.037 | [3] 0.037 | [4] 0.092 | [5] -0.092

PRPF39 (UniProt Q86UA1)
inactive: [1] -0.015 | [2] 0.013 | [3] -0.053 | [4] 0.021 | [5] 0.04

PPP3CB (UniProt P16298)
inactive: [1] 0.063 | [2] 0.043 | [3] 0.026 | [4] 0.002 | [5] -0.025

PRMT3 (UniProt O60678)
inactive: [1] -0.002 | [2] -0.008 | [3] 0.018 | [4] -0.007 | [5] -0.017

PPP1R12C isoform 4 (UniProt Q9BZL4)
inactive: [1] -0.016 | [2] -0.017 | [3] 0.004 | [4] -0.064 | [5] 0.007

PPP1R21 (UniProt Q6ZMI0)
inactive: [1] -0.003 | [2] -0.002 | [3] 0.03 | [4] 0.051 | [5] 0.027

PRDX4 (UniProt Q13162)
inactive: [1] 0.014 | [2] 0 | [3] 0.007 | [4] -0.052 | [5] -0.103

PRIM2 (UniProt P49643)
inactive: [1] 0.004 | [2] 0.026 | [3] 0.016 | [4] 0.009 | [5] 0.028

PPIL2 (UniProt Q13356)
inactive: [1] 0.036 | [2] 0.005 | [3] 0.029 | [4] 0.082 | [5] 0.011

PPP4R1 (UniProt Q8TF05)
inactive: [1] -0.018 | [2] 0.022 | [3] 0.023 | [4] -0.013 | [5] -0.006

PRPF19 (UniProt Q9UMS4)
inactive: [1] -0.009 | [2] 0.001 | [3] 0.017 | [4] 0.006 | [5] 0.029

PPP1R14C (UniProt Q8TAE6)
inactive: [1] -0.019 | [2] 0.024 | [3] 0.051 | [4] -0.078 | [5] -0.147

PPP3R1 (UniProt P63098)
inactive: [1] 0.012 | [2] -0.037 | [3] -0.032 | [4] 0.007 | [5] 0.063

PRKDC (UniProt P78527)
inactive: [1] -0.073 | [2] -0.123 | [3] -0.064 | [4] 0.028 | [5] -0.048

Reference: the supplement of paper PMC10849652
